According to patent US11051513B2, “Pyridone compounds and agricultural and horticultural fungicides containing the same as active ingredients” (MITSUI CHEMICALS AGRO, INC., priority 2017, dated 2021):
Some of these results come from one statement about several compounds together.

Assays:
[1] = test system: Colletotrichum orbiculare; experiment: Test Example H: Anthracnose on cucumber; conditions: 250 ppm sprayed (2.5 ml/pot) on cucumber (Sagami Hanjiro); disease development 6 to 10 days after inoculation
Magnaporthe grisea = assay type: in vivo; conditions: 250 ppm sprayed (2.5 ml/pot) on rice (Sachikaze); disease development 6 to 10 days after inoculation
Botrytis cinerea = experiment: Test Example B: Gray mold on tomato; conditions: 250 ppm sprayed (2.5 ml/pot) on tomato (Oogata Fukuju); disease development 2 to 3 days after inoculation
Puccinia recondita = experiment: Test Example E: Brown rust on wheat; assay type: in vivo; conditions: 250 ppm sprayed (2.5 ml/pot) on wheat (Norin 61); disease development 7 to 10 days after inoculation
Alternaia brassicicola = experiment: Test Example C: Alternaria sooty spot on cabbage; conditions: 250 ppm sprayed (2.5 ml/pot) on cabbage (Shikidori); disease development 2 to 3 days after inoculation
Plasmopara viticola = experiment: Test Example G: Downy mildew on vine; conditions: 250 ppm sprayed (2.5 ml/pot) on grape (Neomuscat); disease development 7 to 10 days after inoculation
[2] = test system: Blumeria graminis f. sp. hordei; experiment: Test Example D: Powdery mildew on barley; conditions: 250 ppm sprayed (2.5 ml/pot) on barley (Akashinriki); disease development 6 to 10 days after inoculation

Measured: control value

CCn1c(-c2ccc(F)cc2)c(-c2ccccc2Cl)cc(I)c1=O [compound 524]
> 50%: all assays above

CCn1c(-c2ccc(F)cc2)c(-c2ccc(Cl)cc2Cl)cc(C)c1=O [compound 363]
> 50%: all assays above

CCn1c(-c2ccc(F)cc2)c(-c2cccc(F)c2Cl)ccc1=O [compound 48]
> 50%: all assays above

CCn1c(-c2ccc(OCCCOC)cc2)c(-c2cc(F)cc(F)c2Cl)cc(Cl)c1=O [compound 270]
> 50%: all assays above

CN1C(=O)CCC(c2cc(F)cc(F)c2Cl)=C1c1ccc(F)cc1 [compound 23]
> 50%: all assays above

CCn1c(-c2ccc(F)cc2)c(-c2ccccc2C)ccc1=O [compound 293]
> 50%: all assays above

CCn1c(-c2ccccc2)c(-c2cc(F)ccc2C)ccc1=O [compound 466]
> 50%: all assays above

C#CCOc1cccc(-c2cc(Cl)c(=O)n(CC)c2-c2ccc(F)cc2)c1Cl [compound 271]
> 50%: all assays above

CCn1c(-c2ccc(F)cc2)c(-c2ccc(F)cc2Cl)cc(Br)c1=O [compound 352]
> 50%: all assays above

COc1ccc(-c2c(-c3cc(OC)cc(OC)c3Cl)ccc(=O)n2C)cc1 [compound 103]
> 50%: all assays above

C#CCOc1ccc(Cl)c(-c2cc(Cl)c(=O)n(CC)c2-c2ccc(F)cc2)c1 [compound 251]
> 50%: all assays above

Cc1ccccc1-c1ccc(=O)n(CC(F)F)c1-c1ccccc1 [compound 492]
> 50%: all assays above

COc1ccc(Cl)c(-c2ccc(=O)n(C)c2-c2ccccc2)c1 [compound 90]
> 50%: all assays above

CCn1c(-c2ccc(F)cc2)c(-c2cccc(O)c2Cl)cc(Cl)c1=O [compound 341]
> 50%: all assays above

CCn1c(-c2ccc(OC)cc2)c(-c2cc(OC)ccc2Cl)cc(Cl)c1=O [compound 73]
> 50%: all assays above

CCn1c(-c2ccccc2)c(-c2cc(OC)ccc2Cl)cc(Cl)c1=O [compound 85]
> 50%: all assays above

CCn1c(-c2ccc(F)cc2)c(-c2cccc(OC)c2Cl)ccc1=O [compound 94]
> 50%: all assays above

CCn1c(-c2cc(F)c(OC)c(F)c2)c(-c2cc(F)ccc2Cl)ccc1=O [compound 184]
> 50%: all assays above

O=c1ccc(-c2ccc(F)cc2Cl)c(-c2ccccc2)n1CC(F)F [compound 506]
> 50%: all assays above

O=c1ccc(-c2cc(F)ccc2Cl)c(-c2ccc(F)cc2)n1CC(F)F [compound 449]
> 50%: all assays above

COc1ccc(Cl)c(-c2ccc(=O)n(C)c2-c2ccc(F)cc2)c1 [compound 34]
> 50%: all assays above

O=c1ccc(-c2ccccc2Br)c(-c2ccc(F)cc2)n1CC(F)F [compound 520]
> 50%: all assays above

CCn1c(-c2ccc(F)cc2)c(-c2ccccc2Br)ccc1=O [compound 211]
> 50%: all assays above

CCn1c(-c2ccc(F)cc2)c(-c2cc(OCS(C)(=O)=O)ccc2Cl)cc(Cl)c1=O [compound 266]
> 50%: all assays above

CCn1c(-c2ccc(C#N)cc2)c(-c2cc(F)cc(F)c2Cl)cc(Cl)c1=O [compound 319]
> 50%: all assays above

C#CCOc1ccc(-c2c(-c3cc(F)cc(F)c3Cl)ccc(=O)n2CC)cc1 [compound 368]
> 50%: all assays above

O=c1c(Cl)cc(-c2ccccc2Cl)c(-c2ccccc2)n1CC(F)F [compound 490]
> 50%: all assays above

CCn1c(-c2ccc(OC(C)=O)cc2)c(-c2cc(F)cc(F)c2Cl)cc(Cl)c1=O [compound 209]
> 50%: all assays above

CCn1c(-c2ccccc2)c(-c2cc(OC)cc(OC)c2Cl)ccc1=O [compound 4]
> 50%: all assays above
